Experimental data as given in publication PMC12157126, “Saturation kinetics and specificity of transporters for L-arginine and asymmetric dimethylarginine (ADMA) at the blood-brain and blood-CSF barriers” (PLOS One, 2025).
Some entries repeat one wording, which the source may state once for all of them.

Test system: blood-brain and blood-CSF barriers
Test: [14C]-sucrose distribution (vascular space / barrier integrity marker) during in situ brain perfusion
Details: for effect on [14C]-sucrose distribution (barrier integrity): 20 mM L-homoarginine, 4 mM BCH, 500 μM α-methyl-D,L-tryptophan
Experimental: The in situ brain/choroid plexus perfusion method was performed as previously described and will only be briefly detailed here. […] At the end of the perfusion period a CSF sample was taken from the cisterna magna, the animal was decapitated, the brain removed and samples taken under a Leica S4E L2 stereomicroscope (Leica; Buckinghamshire, UK). […] The circumventricular organs (CVOs) including the choroid plexus, pituitary gland and pineal gland were also sampled. Brain samples were also taken for capillary depletion analysis.
It is specifically used in brain samples (including brain homogenate and brain supernatant) to measure the vascular space at all perfusion time points. At later time points, in particular, it may also represent the capillary endothelial cell volume and/ or diffusion across the brain capillary wall and into the brain interstitial fluid. In the pellet samples it will measure extracellular fluid and may also represent capillary endothelial cell volume. […] It may also represent any accumulation into the cells of the choroid plexus.

[1] = [3H]-ADMA experiments, brain regions, capillary depletion compartments and CVOs, 2 mM harmaline
[2] = [3H]-arginine experiments, brain regions, capillary depletion samples, CVO and CSF

Structure (SMILES) | effect on [14C]-sucrose distribution (barrier integrity) [1] | effect on [14C]-sucrose distribution (barrier integrity) [2] | other results
CC(N)(Cc1c[nH]c2ccccc12)C(=O)O (racemic) [α-methyl-D,L-tryptophan, reference compound] | not significantly affected | not significantly affected | 
NC1(C(=O)O)CC2CCC1C2 (stereo not drawn) [BCH, 2-amino-endo-bicyclo[2.2.1]heptane-2-carboxylic acid, reference compound] | not significantly affected | not significantly affected | 
COc1ccc2c3c([nH]c2c1)C(C)=NCC3 [Harmaline, harmaline, reference compound] | not significantly affected |  | 
NC(N)=NCCCC[C@H](N)C(=O)O [L-homoarginine, reference compound] | not significantly affected | not significantly affected | 
CC(C)C[C@H](N)C(=O)O [L-leucine, reference compound] |  |  | effect on [14C]-sucrose space (5 mM L-leucine, frontal cortex, caudate nucleus, cerebellum and pellet): significantly higher
N[C@@H](Cc1ccccc1)C(=O)O [L-phenylalanine, reference compound] |  |  | effect on vascular space ([14C]-sucrose) (200 μM L-phenylalanine, occipital cortex and hippocampus): significant reduction
CN(C)C(N)=NCCC[C@H](N)C(=O)O.Cl.Cl [unlabelled ADMA, N^G,N^G-dimethylarginine dihydrochloride] |  |  | effect on [14C]-sucrose distribution (unlabelled ADMA 500 μM, occipital cortex, caudate nucleus, hippocampus, thalamus, pons and cerebellum): statistically increase; effect on [14C]-sucrose distribution (unlabelled ADMA at most concentrations, pellet): statistically reduced; [14C]-sucrose distribution vs control (unlabelled ADMA up to 100 μM, brain regions, homogenate, supernatant, CSF and CVOs (exception 3 μM in hippocampus and thalamus)): not statistically significantly different
